Measurements reported in publication doi:10.1101/2025.01.15.633155.
Results are given in words; binding and its absence hold for the method and conditions named. For some assays here: In cells and extracts the contact can be indirect. Some results given as binding are weak or reduced against the parent protein; the word gives no strength. For some assays here: Where a sequence is shown, tags or fusion partners need not be part of it.

Protein sequences, listed by entry. Tags and fused reporters are not part of them. Lines headed by an entry give the natural chain unless they say otherwise; changes in a name come on top. Residues count along the entry.
UniProt Q9LJF3: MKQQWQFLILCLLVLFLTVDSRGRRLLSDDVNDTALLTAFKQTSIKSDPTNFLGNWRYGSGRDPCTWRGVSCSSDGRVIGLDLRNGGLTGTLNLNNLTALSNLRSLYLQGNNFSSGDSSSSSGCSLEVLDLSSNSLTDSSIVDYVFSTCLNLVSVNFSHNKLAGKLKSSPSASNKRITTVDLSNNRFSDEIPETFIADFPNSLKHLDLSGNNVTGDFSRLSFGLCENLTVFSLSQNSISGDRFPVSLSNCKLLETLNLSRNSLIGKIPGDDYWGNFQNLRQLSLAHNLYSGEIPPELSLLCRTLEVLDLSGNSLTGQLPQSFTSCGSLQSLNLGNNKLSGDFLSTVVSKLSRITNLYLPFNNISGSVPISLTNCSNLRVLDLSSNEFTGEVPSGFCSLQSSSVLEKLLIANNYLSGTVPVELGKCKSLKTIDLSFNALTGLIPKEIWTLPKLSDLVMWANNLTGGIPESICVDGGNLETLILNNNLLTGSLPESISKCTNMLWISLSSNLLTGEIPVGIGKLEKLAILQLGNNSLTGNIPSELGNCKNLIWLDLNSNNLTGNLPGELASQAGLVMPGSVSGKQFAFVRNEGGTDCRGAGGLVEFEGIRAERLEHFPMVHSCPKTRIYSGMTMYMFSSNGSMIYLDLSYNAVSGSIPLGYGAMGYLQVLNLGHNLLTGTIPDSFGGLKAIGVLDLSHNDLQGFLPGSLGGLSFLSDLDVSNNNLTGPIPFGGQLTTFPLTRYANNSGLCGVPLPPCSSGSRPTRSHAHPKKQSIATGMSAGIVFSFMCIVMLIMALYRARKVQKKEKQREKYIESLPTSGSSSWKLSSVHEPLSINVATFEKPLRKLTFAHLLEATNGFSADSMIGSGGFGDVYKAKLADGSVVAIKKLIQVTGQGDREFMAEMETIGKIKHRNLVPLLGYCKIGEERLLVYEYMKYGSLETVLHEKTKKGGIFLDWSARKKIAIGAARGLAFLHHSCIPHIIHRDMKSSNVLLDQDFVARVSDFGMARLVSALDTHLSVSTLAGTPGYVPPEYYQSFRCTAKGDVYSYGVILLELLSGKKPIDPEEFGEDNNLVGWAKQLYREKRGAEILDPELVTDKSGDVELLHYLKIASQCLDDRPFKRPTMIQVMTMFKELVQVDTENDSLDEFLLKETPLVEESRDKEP
BRL3–mVenus: residues 24-1164 of Q9LJF3
BRL3 kinase domain (amino acids 797–1,164), yeast two-hybrid fusion: residues 797-1164 of Q9LJF3

How the values were obtained:
[1] = target: BRI1-LIKE 3 (BRL3)–GFP (Arabidopsis thaliana) (UniProt Q9LJF3); assay: co-IP
[2] = target: BRL3, BiFC fusion (Arabidopsis thaliana) (UniProt Q9LJF3); assay: split reporter
[3] = target: BRL3 kinase domain (amino acids 797–1,164), yeast two-hybrid fusion (Arabidopsis thaliana) (UniProt Q9LJF3); assay: two-hybrid
[4] = target: BRL3–mVenus (Arabidopsis thaliana) (UniProt Q9LJF3); assay: FRET or BRET

B1: ERD14–3xHA (protein, UniProt P42763 1-185)
chain: MAEEIKNVPEQEVPKVATEESSAEVTDRGLFDFLGKKKDETKPEETPIASEFEQKVHISEPEPEVKHESLLEKLHRSDSSSSSSSEEEGSDGEKRKKKKEKKKPTTEVEVKEEEKKGFMEKLKEKLPGHKKPEDGSAVAAAPVVVPPPVEEAHPVEKKGILEKIKEKLPGYHPKTTVEEEKKDKE
- binding [1]: binds

B2: ERD14 full length, BiFC fusion (protein, UniProt P42763 1-185)
chain: MAEEIKNVPEQEVPKVATEESSAEVTDRGLFDFLGKKKDETKPEETPIASEFEQKVHISEPEPEVKHESLLEKLHRSDSSSSSSSEEEGSDGEKRKKKKEKKKPTTEVEVKEEEKKGFMEKLKEKLPGHKKPEDGSAVAAAPVVVPPPVEEAHPVEKKGILEKIKEKLPGYHPKTTVEEEKKDKE
- binding [2]: binds

B3: ERD14 full length, yeast two-hybrid fusion (protein, UniProt P42763 1-185)
chain: MAEEIKNVPEQEVPKVATEESSAEVTDRGLFDFLGKKKDETKPEETPIASEFEQKVHISEPEPEVKHESLLEKLHRSDSSSSSSSEEEGSDGEKRKKKKEKKKPTTEVEVKEEEKKGFMEKLKEKLPGHKKPEDGSAVAAAPVVVPPPVEEAHPVEKKGILEKIKEKLPGYHPKTTVEEEKKDKE
- binding [3]: binds

B4: ERD14^polyLys (amino acids 91–185), yeast two-hybrid fusion (domain or fragment, UniProt P42763 91-185)
chain: DGEKRKKKKEKKKPTTEVEVKEEEKKGFMEKLKEKLPGHKKPEDGSAVAAAPVVVPPPVEEAHPVEKKGILEKIKEKLPGYHPKTTVEEEKKDKE
- binding [3]: binds

B5: ERD14^polyLys–2xmCherry (domain or fragment, UniProt P42763 91-185)
chain: DGEKRKKKKEKKKPTTEVEVKEEEKKGFMEKLKEKLPGHKKPEDGSAVAAAPVVVPPPVEEAHPVEKKGILEKIKEKLPGYHPKTTVEEEKKDKE
- binding [4]: binds

B6: BRI1 KINASE INHIBITOR 1 (BKI1), BiFC fusion (protein, UniProt Q9FMZ0 1-337)
chain: METNLQQVKNSSQTFSEKQNPKQEASPSPISSTCSSPSHDFSFTISLQPLSSSSKHISPTLRSPSKTTSSYQQTDPFAVDLSPADEIFFHGHLLPLHLLSHLPVSPRTSTGSYNDGFTLPVKDILPDQPTNNNNNTENAITNISTEAKDDNTEDKAEGEIRVKTKPIKSFSLFGLSKWRKGFESNEREQEQQQQKIKKPMSLDLSHAVKKYIRMLFQKRGNGTQFWNRRQTSSYSFSSSLMGPNGNSKTMINGSYNKRDLIRGRRGELFSAPASMRTSPTNSGHLRVSTAGLSSSSGSTSSSSSDSTMEELQAAIQAAIAHCKNSSAVDRDDKVKDS
- binding [2]: no binding

B7: BKI1 full length, yeast two-hybrid fusion (protein, UniProt Q9FMZ0 1-337)
chain: METNLQQVKNSSQTFSEKQNPKQEASPSPISSTCSSPSHDFSFTISLQPLSSSSKHISPTLRSPSKTTSSYQQTDPFAVDLSPADEIFFHGHLLPLHLLSHLPVSPRTSTGSYNDGFTLPVKDILPDQPTNNNNNTENAITNISTEAKDDNTEDKAEGEIRVKTKPIKSFSLFGLSKWRKGFESNEREQEQQQQKIKKPMSLDLSHAVKKYIRMLFQKRGNGTQFWNRRQTSSYSFSSSLMGPNGNSKTMINGSYNKRDLIRGRRGELFSAPASMRTSPTNSGHLRVSTAGLSSSSGSTSSSSSDSTMEELQAAIQAAIAHCKNSSAVDRDDKVKDS
- binding [3]: no binding

B8: CLV1 (receptor, UniProt Q9SYQ8 25-980)
chain: YTDMEVLLNLKSSMIGPKGHGLHDWIHSSSPDAHCSFSGVSCDDDARVISLNVSFTPLFGTISPEIGMLTHLVNLTLAANNFTGELPLEMKSLTSLKVLNISNNGNLTGTFPGEILKAMVDLEVLDTYNNNFNGKLPPEMSELKKLKYLSFGGNFFSGEIPESYGDIQSLEYLGLNGAGLSGKSPAFLSRLKNLREMYIGYYNSYTGGVPPEFGGLTKLEILDMASCTLTGEIPTSLSNLKHLHTLFLHINNLTGHIPPELSGLVSLKSLDLSINQLTGEIPQSFINLGNITLINLFRNNLYGQIPEAIGELPKLEVFEVWENNFTLQLPANLGRNGNLIKLDVSDNHLTGLIPKDLCRGEKLEMLILSNNFFFGPIPEELGKCKSLTKIRIVKNLLNGTVPAGLFNLPLVTIIELTDNFFSGELPVTMSGDVLDQIYLSNNWFSGEIPPAIGNFPNLQTLFLDRNRFRGNIPREIFELKHLSRINTSANNITGGIPDSISRCSTLISVDLSRNRINGEIPKGINNVKNLGTLNISGNQLTGSIPTGIGNMTSLTTLDLSFNDLSGRVPLGGQFLVFNETSFAGNTYLCLPHRVSCPTRPGQTSDHNHTALFSPSRIVITVIAAITGLILISVAIRQMNKKKNQKSLAWKLTAFQKLDFKSEDVLECLKEENIIGKGGAGIVYRGSMPNNVDVAIKRLVGRGTGRSDHGFTAEIQTLGRIRHRHIVRLLGYVANKDTNLLLYEYMPNGSLGELLHGSKGGHLQWETRHRVAVEAAKGLCYLHHDCSPLILHRDVKSNNILLDSDFEAHVADFGLAKFLVDGAASECMSSIAGSYGYIAPEYAYTLKVDEKSDVYSFGVVLLELIAGKKPVGEFGEGVDIVRWVRNTEEEITQPSDAAIVVAIVDPRLTGYPLTSVIHVFKIAMMCVEEEAAARPTMREVVHMLTNPPKSVANLIAF
- binding [4]: no binding
